Assay results taken from patent US20160220738A1, “PROGESTERONE-CONTAINING COMPOSITIONS AND DEVICES” (priority 2007, published 2016).
At least one compound was matched to its structure with a doubt left.

Tested on: primary astrocyte cultures
Experiment: Glucose transport inhibition in astrocytes (Example 13)
Format: cell-based, rat
Conditions: 24 hours exposure

## C[C@@H]1C[C@H]2[C@@H]3CCC4=CC(=O)C=C[C@]4(C)[C@@]3(F)[C@@H](O)C[C@]2(C)[C@@]1(O)C(=O)CO [dexamethasone]
  concentration inhibiting glucose transport: 100 nM
